The list shows a part of the results.

Amino acid sequences for entries named in this document (tags omitted). A change or cut given only in a name is not applied to a line headed by its entry.
UniProt P55145: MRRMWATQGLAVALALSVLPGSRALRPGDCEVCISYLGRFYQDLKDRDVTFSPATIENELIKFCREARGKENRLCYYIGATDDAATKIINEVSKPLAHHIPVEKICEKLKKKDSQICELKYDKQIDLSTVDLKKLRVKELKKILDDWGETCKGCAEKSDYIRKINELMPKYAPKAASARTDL
UniProt Q9NX47: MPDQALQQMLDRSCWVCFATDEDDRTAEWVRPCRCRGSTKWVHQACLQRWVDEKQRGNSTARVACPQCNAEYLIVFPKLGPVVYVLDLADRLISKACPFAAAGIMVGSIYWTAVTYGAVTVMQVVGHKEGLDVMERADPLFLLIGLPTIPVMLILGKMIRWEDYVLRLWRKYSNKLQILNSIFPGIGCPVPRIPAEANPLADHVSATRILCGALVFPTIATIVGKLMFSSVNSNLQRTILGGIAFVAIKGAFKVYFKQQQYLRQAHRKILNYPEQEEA
UniProt Q14244: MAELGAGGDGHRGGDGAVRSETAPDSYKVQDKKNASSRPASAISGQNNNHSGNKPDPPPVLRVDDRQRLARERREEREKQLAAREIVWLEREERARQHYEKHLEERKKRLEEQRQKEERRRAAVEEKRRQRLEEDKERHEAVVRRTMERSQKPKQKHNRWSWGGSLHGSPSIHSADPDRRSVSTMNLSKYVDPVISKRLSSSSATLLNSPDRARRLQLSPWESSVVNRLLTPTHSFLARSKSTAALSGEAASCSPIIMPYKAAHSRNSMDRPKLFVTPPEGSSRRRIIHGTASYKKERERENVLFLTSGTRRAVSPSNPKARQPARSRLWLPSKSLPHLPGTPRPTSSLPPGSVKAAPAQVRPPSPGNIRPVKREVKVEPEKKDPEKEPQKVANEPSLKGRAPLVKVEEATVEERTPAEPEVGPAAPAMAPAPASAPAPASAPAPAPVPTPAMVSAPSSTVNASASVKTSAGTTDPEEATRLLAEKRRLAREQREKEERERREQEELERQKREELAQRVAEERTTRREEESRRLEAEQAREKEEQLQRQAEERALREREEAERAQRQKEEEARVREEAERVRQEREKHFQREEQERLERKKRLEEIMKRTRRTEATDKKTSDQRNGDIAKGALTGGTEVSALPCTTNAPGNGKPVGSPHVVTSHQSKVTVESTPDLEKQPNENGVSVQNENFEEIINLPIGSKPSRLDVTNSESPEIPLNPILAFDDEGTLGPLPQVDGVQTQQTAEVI
UniProt Q9UKM7: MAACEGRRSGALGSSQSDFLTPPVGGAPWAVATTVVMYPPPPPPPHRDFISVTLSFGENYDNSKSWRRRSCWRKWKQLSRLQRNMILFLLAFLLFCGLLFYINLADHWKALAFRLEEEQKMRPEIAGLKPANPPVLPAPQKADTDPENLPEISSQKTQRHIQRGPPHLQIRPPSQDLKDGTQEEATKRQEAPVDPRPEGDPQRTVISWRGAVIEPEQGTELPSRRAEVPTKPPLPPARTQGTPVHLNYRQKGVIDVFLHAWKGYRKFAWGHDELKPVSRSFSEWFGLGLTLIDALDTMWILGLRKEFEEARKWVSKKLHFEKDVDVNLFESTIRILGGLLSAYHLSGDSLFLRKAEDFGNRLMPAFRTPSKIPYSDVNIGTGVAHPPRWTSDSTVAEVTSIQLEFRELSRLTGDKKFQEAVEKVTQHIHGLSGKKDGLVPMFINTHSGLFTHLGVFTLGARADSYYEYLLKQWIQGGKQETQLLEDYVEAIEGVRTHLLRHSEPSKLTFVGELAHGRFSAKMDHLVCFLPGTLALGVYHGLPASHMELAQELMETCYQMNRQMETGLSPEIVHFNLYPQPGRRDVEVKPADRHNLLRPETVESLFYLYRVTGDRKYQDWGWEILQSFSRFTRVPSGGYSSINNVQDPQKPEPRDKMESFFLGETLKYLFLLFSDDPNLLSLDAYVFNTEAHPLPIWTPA
UniProt Q15013: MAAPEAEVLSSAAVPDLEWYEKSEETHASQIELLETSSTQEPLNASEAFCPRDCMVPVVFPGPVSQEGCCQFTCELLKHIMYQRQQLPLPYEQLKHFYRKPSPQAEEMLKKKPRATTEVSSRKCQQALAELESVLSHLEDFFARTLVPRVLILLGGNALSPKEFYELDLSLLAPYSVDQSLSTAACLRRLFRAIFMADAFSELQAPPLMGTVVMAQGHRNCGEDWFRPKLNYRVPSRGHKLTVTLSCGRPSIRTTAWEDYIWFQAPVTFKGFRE
UniProt Q15691: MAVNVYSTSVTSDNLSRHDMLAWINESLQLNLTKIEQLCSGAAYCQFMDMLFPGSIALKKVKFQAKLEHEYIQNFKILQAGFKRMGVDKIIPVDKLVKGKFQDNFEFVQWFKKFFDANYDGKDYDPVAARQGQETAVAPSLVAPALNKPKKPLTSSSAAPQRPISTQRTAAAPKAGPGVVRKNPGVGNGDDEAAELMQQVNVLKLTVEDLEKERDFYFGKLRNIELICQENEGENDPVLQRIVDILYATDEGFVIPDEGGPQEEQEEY
UniProt P62310: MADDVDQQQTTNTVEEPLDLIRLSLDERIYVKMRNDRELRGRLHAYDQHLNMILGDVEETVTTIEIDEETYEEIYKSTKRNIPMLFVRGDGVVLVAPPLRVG
UniProt Q9UK45: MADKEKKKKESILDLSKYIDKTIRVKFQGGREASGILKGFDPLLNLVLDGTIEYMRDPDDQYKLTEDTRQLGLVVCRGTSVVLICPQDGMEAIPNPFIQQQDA
UniProt Q9HD34: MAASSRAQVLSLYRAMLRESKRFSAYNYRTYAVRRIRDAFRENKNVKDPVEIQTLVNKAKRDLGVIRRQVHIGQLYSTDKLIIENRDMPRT
UniProt P78559: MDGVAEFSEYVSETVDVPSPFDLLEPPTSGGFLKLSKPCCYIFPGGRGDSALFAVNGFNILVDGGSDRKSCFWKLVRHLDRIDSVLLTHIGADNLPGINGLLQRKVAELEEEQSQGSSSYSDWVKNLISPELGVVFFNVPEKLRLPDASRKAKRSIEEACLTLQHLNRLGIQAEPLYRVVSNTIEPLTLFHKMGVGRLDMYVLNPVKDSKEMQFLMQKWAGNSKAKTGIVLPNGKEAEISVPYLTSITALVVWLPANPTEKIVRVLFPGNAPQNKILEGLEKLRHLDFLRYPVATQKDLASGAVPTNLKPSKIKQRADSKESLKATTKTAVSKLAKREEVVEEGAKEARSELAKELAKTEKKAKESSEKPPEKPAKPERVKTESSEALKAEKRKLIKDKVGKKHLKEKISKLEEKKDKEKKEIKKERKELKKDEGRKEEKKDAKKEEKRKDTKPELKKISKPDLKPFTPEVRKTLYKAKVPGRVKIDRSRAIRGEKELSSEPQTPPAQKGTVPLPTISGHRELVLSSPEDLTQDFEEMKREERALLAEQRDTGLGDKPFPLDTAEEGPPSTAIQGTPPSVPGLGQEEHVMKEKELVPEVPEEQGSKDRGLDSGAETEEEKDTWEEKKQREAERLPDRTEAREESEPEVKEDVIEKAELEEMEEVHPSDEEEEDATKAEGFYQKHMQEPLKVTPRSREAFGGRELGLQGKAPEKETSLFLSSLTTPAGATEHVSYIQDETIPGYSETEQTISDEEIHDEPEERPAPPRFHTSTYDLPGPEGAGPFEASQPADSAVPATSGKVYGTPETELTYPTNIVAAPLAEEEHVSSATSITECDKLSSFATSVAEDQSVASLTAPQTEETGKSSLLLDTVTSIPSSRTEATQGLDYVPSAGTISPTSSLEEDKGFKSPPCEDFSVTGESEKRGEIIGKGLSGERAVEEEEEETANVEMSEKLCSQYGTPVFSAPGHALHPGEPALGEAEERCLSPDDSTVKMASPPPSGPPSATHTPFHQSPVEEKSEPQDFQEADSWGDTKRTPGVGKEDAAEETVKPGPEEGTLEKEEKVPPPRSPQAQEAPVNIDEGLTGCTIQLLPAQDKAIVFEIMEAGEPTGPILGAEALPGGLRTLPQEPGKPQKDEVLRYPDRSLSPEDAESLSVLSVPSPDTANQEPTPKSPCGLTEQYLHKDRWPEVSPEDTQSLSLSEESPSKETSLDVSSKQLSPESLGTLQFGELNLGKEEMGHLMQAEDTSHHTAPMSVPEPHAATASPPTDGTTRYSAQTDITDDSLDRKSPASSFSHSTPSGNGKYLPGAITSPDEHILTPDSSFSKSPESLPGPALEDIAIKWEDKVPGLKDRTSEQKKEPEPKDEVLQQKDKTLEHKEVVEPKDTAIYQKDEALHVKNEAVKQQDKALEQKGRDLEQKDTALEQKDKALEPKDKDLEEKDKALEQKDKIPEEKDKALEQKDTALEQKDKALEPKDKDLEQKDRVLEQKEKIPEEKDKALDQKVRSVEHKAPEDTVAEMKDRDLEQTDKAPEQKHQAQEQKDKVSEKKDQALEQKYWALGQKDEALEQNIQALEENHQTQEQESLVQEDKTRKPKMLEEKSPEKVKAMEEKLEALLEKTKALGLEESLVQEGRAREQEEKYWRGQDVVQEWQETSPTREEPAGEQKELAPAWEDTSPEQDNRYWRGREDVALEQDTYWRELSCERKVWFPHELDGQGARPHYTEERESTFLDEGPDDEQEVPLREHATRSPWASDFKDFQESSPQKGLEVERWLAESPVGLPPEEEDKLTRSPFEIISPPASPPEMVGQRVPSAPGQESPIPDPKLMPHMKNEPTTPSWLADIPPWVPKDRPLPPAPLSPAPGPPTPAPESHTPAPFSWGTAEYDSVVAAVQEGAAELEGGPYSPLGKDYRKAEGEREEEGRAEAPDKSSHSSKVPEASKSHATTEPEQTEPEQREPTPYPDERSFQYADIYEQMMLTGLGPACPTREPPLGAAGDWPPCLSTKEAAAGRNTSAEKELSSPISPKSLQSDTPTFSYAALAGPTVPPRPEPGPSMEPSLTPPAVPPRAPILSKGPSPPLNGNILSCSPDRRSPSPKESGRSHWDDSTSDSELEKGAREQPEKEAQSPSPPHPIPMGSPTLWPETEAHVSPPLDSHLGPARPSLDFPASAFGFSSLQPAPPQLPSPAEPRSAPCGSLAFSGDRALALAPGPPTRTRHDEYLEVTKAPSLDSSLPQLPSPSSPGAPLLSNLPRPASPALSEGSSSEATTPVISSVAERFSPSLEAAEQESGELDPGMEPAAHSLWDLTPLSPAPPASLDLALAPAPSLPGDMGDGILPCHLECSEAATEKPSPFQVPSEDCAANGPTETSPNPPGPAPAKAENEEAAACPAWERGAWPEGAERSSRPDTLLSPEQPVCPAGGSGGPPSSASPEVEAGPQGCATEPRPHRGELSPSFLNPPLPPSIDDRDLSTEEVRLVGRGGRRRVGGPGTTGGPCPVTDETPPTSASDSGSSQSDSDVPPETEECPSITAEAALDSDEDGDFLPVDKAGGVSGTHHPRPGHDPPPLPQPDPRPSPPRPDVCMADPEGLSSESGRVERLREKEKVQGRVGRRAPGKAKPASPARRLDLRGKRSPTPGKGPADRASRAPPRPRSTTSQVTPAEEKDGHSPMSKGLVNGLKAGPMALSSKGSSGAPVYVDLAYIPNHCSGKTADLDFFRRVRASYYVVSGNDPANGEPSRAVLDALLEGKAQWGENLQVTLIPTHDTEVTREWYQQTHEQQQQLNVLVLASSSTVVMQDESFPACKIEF
UniProt P62312: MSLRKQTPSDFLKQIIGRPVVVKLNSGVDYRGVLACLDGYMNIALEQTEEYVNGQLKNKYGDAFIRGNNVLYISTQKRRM
UniProt Q9Y333: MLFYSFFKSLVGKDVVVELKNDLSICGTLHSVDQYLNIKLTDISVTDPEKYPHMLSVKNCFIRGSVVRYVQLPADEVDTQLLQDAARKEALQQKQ
UniProt P45985: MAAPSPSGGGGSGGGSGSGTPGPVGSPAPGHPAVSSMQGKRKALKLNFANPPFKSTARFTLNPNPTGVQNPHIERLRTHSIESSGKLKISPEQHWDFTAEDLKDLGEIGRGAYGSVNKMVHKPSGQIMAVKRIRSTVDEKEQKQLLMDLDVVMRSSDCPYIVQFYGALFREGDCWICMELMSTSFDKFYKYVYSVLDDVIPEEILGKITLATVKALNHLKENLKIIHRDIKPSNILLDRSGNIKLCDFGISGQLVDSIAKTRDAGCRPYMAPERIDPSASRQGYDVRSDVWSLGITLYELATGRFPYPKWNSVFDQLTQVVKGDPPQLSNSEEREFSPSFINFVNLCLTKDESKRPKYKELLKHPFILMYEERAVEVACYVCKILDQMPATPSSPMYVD

Compound in one test: CCCc1cc(C)[nH]c(=O)c1CNC(=O)c1cc(-c2ccnc(N3CCN(C)CC3)c2)cc2c1cnn2C(C)C
The experiment in a line: log2 fold change, soluble protein after heating vs DMSO (PISA); higher = thermal stabilisation; K562 cells, 10 uM, 30 min; active = over 0.2 and 3.5 SD of the protein, either way, in both replicates (recomputed). In short, it runs like this:
(§1)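 K562 cells at 2×10^6 cells/mL were treated with 10 μM compound for 30 min. Aliquots were heated for 3 min across 48°C-58°C, pooled, and extracted in PBS with 0.5% NP-40 at 4°C; soluble protein was the supernatant after 21,000xg for 90 min. Soluble protein was quantified by TMTpro 16plex LC-MS/MS with channel sums equalised, and reported as log2 fold change in thermal stability against DMSO controls, with values from duplicates.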
For the target MALSU1 (UniProt Q96EH3), the log2 fold change was inactive: -0.034.
MANF (UniProt P55145): the log2 fold change is inactive: -0.082.
Same read-out and setting: to MARCHF5 (UniProt Q9NX47) belongs inactive: -0.032.
On the same count and under the same terms, to MAP7 isoform 7 (UniProt Q14244) belongs inactive: 0.161.
Consider MAN1B1 (UniProt Q9UKM7), for which the log2 fold change was inactive: 0.035.
On to MAD2L1BP isoform 3 (UniProt Q15013), for which the log2 fold change was inactive: -0.03.
Take MAPRE1 (UniProt Q15691): the log2 fold change is inactive: 0.067.
In the case of LSM3 (UniProt P62310), the log2 fold change was inactive: -0.046.
Consider LYAR (UniProt Q9NX58), for which the log2 fold change was inactive: 0.162.
Regarding LSM7 (UniProt Q9UK45), the log2 fold change was inactive: -0.049.

Compound in the next test: CCN(CC)Cc1ccc2cc(COC(=O)Nc3ccc(C(=O)NO)cc3)ccc2c1 [givinostat]
Described as above. In short, it runs like this:
as §1
In the case of LYRM4 (UniProt Q9HD34), the log2 fold change was inactive: 0.03.
Still for that read-out and setting: the result for MAGEB2 (UniProt O15479) reads inactive: 0.118; that for MAP1A isoform 2 (UniProt P78559), inactive: 0.057; that for MANBA (UniProt O00462), inactive: 0.05.
The same measure, in the same setting: the result for MAP7D1 (UniProt Q3KQU3) reads inactive: 0.117.
For MAEA (UniProt Q7L5Y9), the log2 fold change is inactive: -0.063.
For MARCHF6 (UniProt O60337), the log2 fold change is inactive: -0.135.
On the same count and under the same terms, the result for LRRC8A (UniProt Q8IWT6) reads inactive: 0; that for MAGT1 (UniProt Q9H0U3), inactive: -0.019.
Still for that read-out and setting: to M6PR (UniProt P20645) belongs inactive: -0.044.
On the same count and under the same terms, to LSM6 (UniProt P62312) belongs inactive: 0.005; to LSM2 (UniProt Q9Y333), inactive: 0.016; to MACF1 (UniProt H3BQK9), inactive: 0.066.
For LYZ (UniProt P61626), the log2 fold change is inactive: 0.488.
Same read-out and setting: the result for MAP2K4 isoform 2 (UniProt P45985) reads inactive: -0.03; that for LRRFIP2 (UniProt Q9Y608), inactive: -0.011; that for MAN2C1 isoform 4 (UniProt Q9NTJ4), inactive: -0.014.
LRSAM1 (UniProt Q6UWE0): the log2 fold change is inactive: 0.001.
For MAN2A1 (UniProt Q16706), the log2 fold change was inactive: -0.024.
As to LSM4 (UniProt Q9Y4Z0), the log2 fold change is inactive: -0.013.
On the same count and under the same terms, to MAPK1 (UniProt P28482) belongs inactive: -0.027; to MACO1 (UniProt Q8N5G2), inactive: 0.046; to MAN2A2 (UniProt P49641), inactive: -0.024.
As for MALSU1 (UniProt Q96EH3), the log2 fold change was inactive: -0.052.
With MANF (UniProt P55145), the log2 fold change was inactive: -0.032.
The same measure, in the same setting: the result for MARCHF5 (UniProt Q9NX47) reads inactive: 0.041.
Turning to MAP7 isoform 7 (UniProt Q14244), the log2 fold change is inactive: 0.14.
Same read-out and setting: to MAN1B1 (UniProt Q9UKM7) belongs inactive: 0.023.
Same read-out and setting: to MAD2L1BP isoform 3 (UniProt Q15013) belongs inactive: 0.019.
As to MAPRE1 (UniProt Q15691), the log2 fold change was inactive: -0.024.
The same measure, in the same setting: the result for LSM3 (UniProt P62310) reads inactive: -0.03; that for LYAR (UniProt Q9NX58), inactive: 0.082.
Regarding LSM7 (UniProt Q9UK45), the log2 fold change is inactive: 0.022.

Compound in a further test: CCN(CCCOc1ccc2c(Nc3cc(CC(=O)Nc4cccc(F)c4)[nH]n3)ncnc2c1)CCOP(=O)(O)O [barasertib]
The test is described as above. In short, it runs like this:
as §1
Consider LYRM4 (UniProt Q9HD34), for which the log2 fold change was inactive: 0.02.
Consider MAGEB2 (UniProt O15479), for which the log2 fold change is inactive: -0.08.
The same measure, in the same setting: to MAP1A isoform 2 (UniProt P78559) belongs inactive: -0.034; to MANBA (UniProt O00462), inactive: -0.009.
On to MAP7D1 (UniProt Q3KQU3), for which the log2 fold change is inactive: -0.102.
Take MAEA (UniProt Q7L5Y9): the log2 fold change is inactive: 0.053.
As to MARCHF6 (UniProt O60337), the log2 fold change is inactive: 0.061.
Same read-out and setting: the result for LRRC8A (UniProt Q8IWT6) reads inactive: -0.06; that for MAGT1 (UniProt Q9H0U3), inactive: 0.005; that for M6PR (UniProt P20645), inactive: -0.002.
Same read-out and setting: the result for LSM6 (UniProt P62312) reads inactive: -0.008; that for LSM2 (UniProt Q9Y333), inactive: -0.011; that for MACF1 (UniProt H3BQK9), inactive: -0.016.
Turning to LYZ (UniProt P61626), the log2 fold change was inactive: 0.602.
MAP2K4 isoform 2 (UniProt P45985): the log2 fold change is inactive: -0.009.
In the case of LRRFIP2 (UniProt Q9Y608), the log2 fold change is inactive: 0.008.
MAN2C1 isoform 4 (UniProt Q9NTJ4): the log2 fold change was inactive: 0.016.
In the case of LRSAM1 (UniProt Q6UWE0), the log2 fold change is inactive: 0.132.
Regarding MAN2A1 (UniProt Q16706), the log2 fold change is inactive: 0.009.
Take LSM4 (UniProt Q9Y4Z0): the log2 fold change is inactive: -0.015.
On the same count and under the same terms, to MAPK1 (UniProt P28482) belongs inactive: 0.006; to MACO1 (UniProt Q8N5G2), inactive: 0.011.
Same read-out and setting: to MAN2A2 (UniProt P49641) belongs inactive: -0.011.
For MALSU1 (UniProt Q96EH3), the log2 fold change was inactive: -0.049.
Still for that read-out and setting: to MANF (UniProt P55145) belongs inactive: -0.024; to MARCHF5 (UniProt Q9NX47), inactive: -0.05.
On the same count and under the same terms, to MAP7 isoform 7 (UniProt Q14244) belongs inactive: -0.078; to MAN1B1 (UniProt Q9UKM7), inactive: 0.005.
The same measure, in the same setting: the result for MAD2L1BP isoform 3 (UniProt Q15013) reads inactive: 0.01; that for MAPRE1 (UniProt Q15691), inactive: 0.048; that for LSM3 (UniProt P62310), inactive: 0.029.
With LYAR (UniProt Q9NX58), the log2 fold change is inactive: -0.124.
LSM7 (UniProt Q9UK45): the log2 fold change is inactive: 0.004.

Values taken from the supplement of paper PMC10849652.
